Results from publication PMC7375240, “Covalent Inhibitors Allosterically Block the Activation of Rho Family Proteins and Suppress Cancer Cell Invasion” (Advanced Science, 2020).

Sequences of proteins named here, by UniProt entry; tags and fusion partners are left off. A change or cut given only in a name is not applied to a line headed by its entry.
UniProt P61586: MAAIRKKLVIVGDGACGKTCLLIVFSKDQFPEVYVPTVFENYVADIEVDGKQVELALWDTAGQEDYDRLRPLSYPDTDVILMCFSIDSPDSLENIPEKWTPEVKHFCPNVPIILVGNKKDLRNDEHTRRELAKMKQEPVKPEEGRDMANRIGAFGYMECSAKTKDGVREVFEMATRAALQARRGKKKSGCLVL

Target: (His)6-tagged wild-type RhoA (human) (UniProt P61586)
Assay: pull-down; (His)6-tagged GTPase held on nickel beads, 2 µg GST-tagged partner added; 20 mM HEPES pH 7.4, 150 mM NaCl, 5 mM MgCl2, 40 mM imidazole, 4 °C, 1 h; GST-tagged protein detected by anti-GST western blot; samples without effect of DC-Rhoin; both purified

binding | Binder
binds | GST-tagged ARAP3 (Arf-GAP with Rho-GAP domain, ANK repeat, and PH domain-containing protein 3), RhoGAP domain (domain or fragment, UniProt Q8WWN8 906-1107) GTGLQEQQMSRGDIPIIVDACISFVTQHGLRLEGVYRKGGARARSLRLLAEFRRDARSVKLRPGEHFVEDVTDTLKRFFRELDDPVTSARLLPRWREAAELPQKNQRLEKYKDVIGCLPRVNRRTLATLIGHLYRVQKCAALNQMCTRNLALLFAPSVFQTDGRGEHEVRVLQELIDGYISVFDIDSDQVAQIDLEVSLITT
binds | GST-tagged RhoGDI (guanine nucleotide dissociation inhibitor ARHGDIA) (protein, UniProt P52565 1-204) MAEQEPTAEQLAQIAAENEEDEHSVNYKPPAQKSIQEIQELDKDDESLRKYKEALLGRVAVSADPNVPNVVVTGLTLVCSSAPGPLELDLTGDLESFKKQSFVLKEGVEYRIKISFRVNREIVSGMKYIQHTYRKGVKIDKTDYMVGSYGPRAEEYEFLTPVEEAPKGMLARGSYSIKSRFTDDDKTDHLSWEWNLTIKKDWKD

These are yes or no findings as the source states them, for the method shown. Binding calls can cover weak binding; strength is not graded here. Where a sequence is shown, tags or fusion partners need not be part of it.
